Measured values published in patent publication US20240316079A1, “USE OF AKR1C3-ACTIVATED COMPOUND” (OBI PHARMA, INC., priority 2021, published 2024).
Some of these results come from one statement about several compounds together.

Test system: H460 cells
Test: Cytotoxicity in H460 cells in the absence or presence of AKR1C3 inhibitor 3021
Details: 3 μM 3021

## CC(OP(=O)(N1CC1)N1CC1)c1ccc([N+](=O)[O-])c(Oc2cccc(C(=O)N(C)C)c2)c1 (racemic) [Compound 2870, 1-(3-(3-N,N-dimethylaminocarbonyl)phenoxyl-4-mtrophenyl)-1-ethyl-N,N′-bis(ethylene)phosphoramidate]
  fold increase of IC50 with 3021 versus absence of the inhibitor: over 1000 fold

## C[C@@H](OP(=O)(N1CC1)N1CC1)c1ccc([N+](=O)[O-])c(Oc2cccc(C(=O)N(C)C)c2)c1 [Compound 3423, (R)-1-(3-(3-N,N-dimethylaminocarbonyl)phenoxyl-4-mtrophenyl)-1-ethyl-N,N′-bis(ethylene)phosphoramidate]
  fold increase of IC50 with 3021 versus absence of the inhibitor: over 1000 fold
